Reference: article PMC11265427
Results are given in words; binding and its absence hold for the method and conditions named. In cells and extracts the contact can be indirect. Some entries that bind do so weakly or less than the wild type.

Amino acid sequences for entries named in this document (tags omitted).
UniProt Q00765: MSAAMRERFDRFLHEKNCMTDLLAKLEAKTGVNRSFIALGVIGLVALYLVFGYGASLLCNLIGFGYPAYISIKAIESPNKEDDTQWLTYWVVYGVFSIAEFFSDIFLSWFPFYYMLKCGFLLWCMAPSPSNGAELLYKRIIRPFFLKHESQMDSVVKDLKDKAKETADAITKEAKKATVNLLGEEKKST

Target: Receptor expression-enhancing protein 5 (REEP5) (UniProt Q00765)
Assay: co-IP; IP antibody coupled to AminoLink resin in a Pierce spin column; lysate oscillated with the resin for 2 h, washed, eluted, western blot with REEP5 and CLEC5A antibodies; which antibody precipitated is not stated

binding: binds
B1: C-type lectin member 5 A (CLEC5A) (protein, UniProt Q9NY25 1-188)
chain: MNWHMIISGLIVVVLKVVGMTLFLLYFPQIFNKSNDGFTTTRSYGTVSQIFGSSSPSPNGFITTRSYGTVCPKDWEFYQARCFFLSTSESSWNESRDFCKGKGSTLAIVNTPEKLKFLQDITDAEKYFIGLIYHREEKRWRWINNSVFNGNVTNQNQNFNCATIGLTKTFDAASCDISYRRICEKNAK
